These are yes or no findings as the source states them, for the method shown. Binding can be weak; no strength is given.
Biological target: T1, CCCTC-binding factor (CTCF) (UniProt P49711)
T1 sequence: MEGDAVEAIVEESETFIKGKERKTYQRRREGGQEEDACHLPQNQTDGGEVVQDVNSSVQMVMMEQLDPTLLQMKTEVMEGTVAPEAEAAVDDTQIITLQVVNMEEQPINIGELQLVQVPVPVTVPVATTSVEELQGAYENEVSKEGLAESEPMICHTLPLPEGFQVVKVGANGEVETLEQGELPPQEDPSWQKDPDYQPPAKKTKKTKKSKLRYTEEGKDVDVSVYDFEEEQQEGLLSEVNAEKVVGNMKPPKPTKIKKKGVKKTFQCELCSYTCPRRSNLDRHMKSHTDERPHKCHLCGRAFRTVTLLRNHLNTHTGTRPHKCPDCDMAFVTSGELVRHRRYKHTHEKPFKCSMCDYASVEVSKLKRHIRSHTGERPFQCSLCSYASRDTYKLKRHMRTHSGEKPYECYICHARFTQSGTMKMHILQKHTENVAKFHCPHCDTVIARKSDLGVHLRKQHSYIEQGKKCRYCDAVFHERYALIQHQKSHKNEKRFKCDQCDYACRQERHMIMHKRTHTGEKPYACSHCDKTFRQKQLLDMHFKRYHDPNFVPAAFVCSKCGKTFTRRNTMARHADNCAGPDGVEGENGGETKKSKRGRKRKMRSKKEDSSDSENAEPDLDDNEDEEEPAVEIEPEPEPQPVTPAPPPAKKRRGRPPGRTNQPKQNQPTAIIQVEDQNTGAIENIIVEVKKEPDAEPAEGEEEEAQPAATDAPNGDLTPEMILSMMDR
Experiment: native gel or EMSA; EMSA with size-fractionated nuclear extracts

binding: binds
Substance: BORIS (CTCFL)

Reference: PMC6995019
